Some of the results follow.
Compound: CC[C@H](C)[C@@H](C(=O)N[C@@H]([C@@H](C)O)C(=O)N[C@@H](CC(C)C)C(=O)[C@]1(CO1)C)NC(=O)[C@H]([C@@H](C)CC)N(C)C(=O)C [epoxomicin]
Assay: log2 fold change, soluble protein after heating vs DMSO (PISA); higher = thermal stabilisation; K562 cells, 10 uM, 30 min; active = over 0.2 and 3.5 SD of the protein, either way, in both replicates (recomputed)
Outline: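 Aliquots of K562 cells (2×10^6 cells/mL) treated with 10 μM compound for 30 min were heated for 3 min over 48°C-58°C. After pooling and extraction in PBS with 0.5% NP-40 at 4°C, soluble protein from a 21,000xg, 90 min spin was quantified by TMTpro 16plex LC-MS/MS with channel sums equalised. Thermal stability is expressed against control samples, from duplicates, as a log2 fold change.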

Chains of the proteins cited; added tags and fusions are not shown. Lines headed by an entry give the natural chain unless they say otherwise; changes in a name come on top.
UniProt Q9P0P0: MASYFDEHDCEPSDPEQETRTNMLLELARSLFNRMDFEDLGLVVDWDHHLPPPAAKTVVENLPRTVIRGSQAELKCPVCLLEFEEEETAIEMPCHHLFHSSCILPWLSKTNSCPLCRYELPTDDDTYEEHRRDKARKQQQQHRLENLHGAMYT
UniProt Q9NWS8: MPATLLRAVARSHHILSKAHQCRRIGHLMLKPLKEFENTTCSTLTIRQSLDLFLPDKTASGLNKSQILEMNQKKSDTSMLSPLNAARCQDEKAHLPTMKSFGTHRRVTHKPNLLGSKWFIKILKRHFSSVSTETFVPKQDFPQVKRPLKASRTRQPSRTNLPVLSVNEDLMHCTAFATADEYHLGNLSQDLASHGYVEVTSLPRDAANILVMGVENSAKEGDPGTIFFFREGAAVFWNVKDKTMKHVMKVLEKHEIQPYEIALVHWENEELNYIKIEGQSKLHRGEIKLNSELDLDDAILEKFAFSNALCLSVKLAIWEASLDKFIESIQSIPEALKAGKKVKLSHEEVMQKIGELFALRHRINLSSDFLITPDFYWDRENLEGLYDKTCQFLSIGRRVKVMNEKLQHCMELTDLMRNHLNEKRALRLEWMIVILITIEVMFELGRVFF
UniProt Q96D71: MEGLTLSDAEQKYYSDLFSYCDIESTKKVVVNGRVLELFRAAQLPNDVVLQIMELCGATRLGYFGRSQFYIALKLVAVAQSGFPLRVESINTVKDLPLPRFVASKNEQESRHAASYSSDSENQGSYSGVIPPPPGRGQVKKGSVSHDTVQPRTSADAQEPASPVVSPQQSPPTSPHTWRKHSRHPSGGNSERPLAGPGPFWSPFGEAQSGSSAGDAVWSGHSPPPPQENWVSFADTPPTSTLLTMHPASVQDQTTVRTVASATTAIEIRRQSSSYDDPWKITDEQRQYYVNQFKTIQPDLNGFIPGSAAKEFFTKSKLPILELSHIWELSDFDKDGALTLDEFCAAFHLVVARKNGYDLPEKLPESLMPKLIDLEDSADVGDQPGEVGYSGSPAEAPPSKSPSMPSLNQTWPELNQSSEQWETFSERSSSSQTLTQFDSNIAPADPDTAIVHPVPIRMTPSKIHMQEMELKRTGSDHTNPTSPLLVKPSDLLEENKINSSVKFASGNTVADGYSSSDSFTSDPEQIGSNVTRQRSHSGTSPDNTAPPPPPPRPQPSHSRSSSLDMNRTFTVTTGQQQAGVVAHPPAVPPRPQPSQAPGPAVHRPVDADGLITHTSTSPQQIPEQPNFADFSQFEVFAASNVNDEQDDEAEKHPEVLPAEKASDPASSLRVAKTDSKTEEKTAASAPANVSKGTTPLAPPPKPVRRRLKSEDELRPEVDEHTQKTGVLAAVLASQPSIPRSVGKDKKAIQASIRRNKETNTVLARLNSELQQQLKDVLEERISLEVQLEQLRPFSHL
UniProt Q6NUK4: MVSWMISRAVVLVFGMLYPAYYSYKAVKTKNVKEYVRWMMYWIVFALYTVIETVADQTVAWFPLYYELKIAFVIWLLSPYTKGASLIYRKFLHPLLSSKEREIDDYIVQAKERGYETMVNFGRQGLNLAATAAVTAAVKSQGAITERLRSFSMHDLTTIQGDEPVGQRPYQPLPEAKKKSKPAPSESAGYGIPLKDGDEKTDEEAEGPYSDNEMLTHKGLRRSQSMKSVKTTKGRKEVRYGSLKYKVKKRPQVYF
UniProt P22670: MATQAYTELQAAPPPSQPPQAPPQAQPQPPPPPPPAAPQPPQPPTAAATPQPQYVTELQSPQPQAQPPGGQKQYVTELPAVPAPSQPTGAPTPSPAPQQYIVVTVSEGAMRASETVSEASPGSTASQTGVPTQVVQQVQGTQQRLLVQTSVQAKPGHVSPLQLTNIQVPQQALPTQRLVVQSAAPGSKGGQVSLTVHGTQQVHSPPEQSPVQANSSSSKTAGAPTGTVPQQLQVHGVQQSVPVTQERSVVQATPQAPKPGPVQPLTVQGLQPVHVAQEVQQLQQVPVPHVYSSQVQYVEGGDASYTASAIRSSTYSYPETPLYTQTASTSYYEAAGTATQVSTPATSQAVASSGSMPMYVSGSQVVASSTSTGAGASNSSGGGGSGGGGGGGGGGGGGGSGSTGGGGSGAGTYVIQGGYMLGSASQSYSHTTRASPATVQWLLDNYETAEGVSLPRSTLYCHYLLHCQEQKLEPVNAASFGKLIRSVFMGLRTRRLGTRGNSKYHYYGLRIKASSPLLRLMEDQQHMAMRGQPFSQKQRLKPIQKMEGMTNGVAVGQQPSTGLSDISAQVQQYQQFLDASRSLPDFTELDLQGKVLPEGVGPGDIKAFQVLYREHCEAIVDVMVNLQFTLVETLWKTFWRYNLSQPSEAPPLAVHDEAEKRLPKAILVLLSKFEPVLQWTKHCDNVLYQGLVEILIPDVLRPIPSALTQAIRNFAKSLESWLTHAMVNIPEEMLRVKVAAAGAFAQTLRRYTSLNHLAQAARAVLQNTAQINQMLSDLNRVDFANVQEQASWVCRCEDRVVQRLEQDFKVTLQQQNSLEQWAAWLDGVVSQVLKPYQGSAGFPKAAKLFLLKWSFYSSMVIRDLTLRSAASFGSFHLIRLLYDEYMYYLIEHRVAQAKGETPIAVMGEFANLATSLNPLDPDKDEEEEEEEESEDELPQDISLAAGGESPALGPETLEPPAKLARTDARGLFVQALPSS
UniProt P38159: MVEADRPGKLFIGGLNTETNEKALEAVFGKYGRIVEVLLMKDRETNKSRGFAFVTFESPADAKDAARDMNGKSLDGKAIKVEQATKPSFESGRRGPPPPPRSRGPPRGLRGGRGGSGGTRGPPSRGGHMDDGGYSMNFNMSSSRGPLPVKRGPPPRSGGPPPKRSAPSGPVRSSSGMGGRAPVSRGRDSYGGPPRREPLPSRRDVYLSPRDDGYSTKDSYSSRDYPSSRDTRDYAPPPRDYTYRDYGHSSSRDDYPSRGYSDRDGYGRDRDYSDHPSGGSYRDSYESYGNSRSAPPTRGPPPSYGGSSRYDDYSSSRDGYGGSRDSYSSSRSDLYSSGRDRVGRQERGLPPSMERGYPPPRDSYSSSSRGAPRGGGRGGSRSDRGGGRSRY
UniProt Q9BRS2: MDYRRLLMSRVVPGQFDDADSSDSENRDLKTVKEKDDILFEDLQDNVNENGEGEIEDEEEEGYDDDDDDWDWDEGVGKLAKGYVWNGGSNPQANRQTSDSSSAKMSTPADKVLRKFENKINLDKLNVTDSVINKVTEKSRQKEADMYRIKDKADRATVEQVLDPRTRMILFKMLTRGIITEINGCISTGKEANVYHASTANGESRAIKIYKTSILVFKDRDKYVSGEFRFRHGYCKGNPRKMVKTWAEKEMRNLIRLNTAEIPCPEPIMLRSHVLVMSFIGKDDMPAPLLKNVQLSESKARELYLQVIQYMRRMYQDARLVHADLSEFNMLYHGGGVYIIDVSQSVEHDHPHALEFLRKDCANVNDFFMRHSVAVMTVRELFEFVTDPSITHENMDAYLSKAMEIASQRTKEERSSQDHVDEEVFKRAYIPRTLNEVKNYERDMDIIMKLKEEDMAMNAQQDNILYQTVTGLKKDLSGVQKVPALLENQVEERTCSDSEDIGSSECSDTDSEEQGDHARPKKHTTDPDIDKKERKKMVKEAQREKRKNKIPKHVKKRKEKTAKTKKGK
UniProt Q96NA2: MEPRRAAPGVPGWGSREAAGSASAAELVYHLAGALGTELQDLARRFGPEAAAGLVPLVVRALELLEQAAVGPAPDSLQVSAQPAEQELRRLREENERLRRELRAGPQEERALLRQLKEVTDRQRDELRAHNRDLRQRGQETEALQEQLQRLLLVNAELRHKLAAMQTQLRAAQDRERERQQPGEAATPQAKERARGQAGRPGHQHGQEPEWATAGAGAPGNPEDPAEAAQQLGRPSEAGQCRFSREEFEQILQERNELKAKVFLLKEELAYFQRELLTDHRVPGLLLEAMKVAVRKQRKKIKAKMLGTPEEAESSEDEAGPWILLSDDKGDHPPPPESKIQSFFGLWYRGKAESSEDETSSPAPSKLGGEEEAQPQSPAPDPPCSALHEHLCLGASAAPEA
UniProt Q9P258, whole entry, looked up: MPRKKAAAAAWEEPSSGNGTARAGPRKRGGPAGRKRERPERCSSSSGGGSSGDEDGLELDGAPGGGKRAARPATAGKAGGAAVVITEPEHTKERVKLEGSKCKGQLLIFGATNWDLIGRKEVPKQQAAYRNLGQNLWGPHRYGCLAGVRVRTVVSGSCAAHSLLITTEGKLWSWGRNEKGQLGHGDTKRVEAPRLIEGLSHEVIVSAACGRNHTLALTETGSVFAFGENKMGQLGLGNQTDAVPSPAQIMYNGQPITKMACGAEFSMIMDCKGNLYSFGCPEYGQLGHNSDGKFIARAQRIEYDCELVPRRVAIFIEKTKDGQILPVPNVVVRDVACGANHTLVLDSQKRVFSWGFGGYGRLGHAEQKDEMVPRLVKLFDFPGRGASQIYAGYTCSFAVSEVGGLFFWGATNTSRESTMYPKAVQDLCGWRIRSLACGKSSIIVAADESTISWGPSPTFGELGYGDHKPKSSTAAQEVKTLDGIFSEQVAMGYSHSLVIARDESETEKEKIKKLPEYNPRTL
UniProt P08134, whole entry, looked up: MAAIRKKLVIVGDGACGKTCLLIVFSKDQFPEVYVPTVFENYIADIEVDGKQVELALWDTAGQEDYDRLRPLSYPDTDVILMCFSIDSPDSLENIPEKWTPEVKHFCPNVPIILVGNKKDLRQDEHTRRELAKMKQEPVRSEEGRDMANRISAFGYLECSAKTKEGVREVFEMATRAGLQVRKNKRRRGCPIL
UniProt P62745, whole entry, looked up: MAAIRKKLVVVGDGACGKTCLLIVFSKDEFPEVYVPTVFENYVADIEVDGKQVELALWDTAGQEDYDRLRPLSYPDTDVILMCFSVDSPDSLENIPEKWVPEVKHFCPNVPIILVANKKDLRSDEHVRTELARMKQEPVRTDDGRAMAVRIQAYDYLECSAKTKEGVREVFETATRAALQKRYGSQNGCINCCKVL
UniProt Q9Y508: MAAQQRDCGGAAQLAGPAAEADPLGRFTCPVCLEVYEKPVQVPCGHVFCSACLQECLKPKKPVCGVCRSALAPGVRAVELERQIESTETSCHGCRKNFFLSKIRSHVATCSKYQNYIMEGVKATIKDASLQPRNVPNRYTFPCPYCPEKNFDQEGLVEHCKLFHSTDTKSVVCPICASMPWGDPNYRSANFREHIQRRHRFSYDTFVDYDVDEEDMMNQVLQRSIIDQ
UniProt Q14257: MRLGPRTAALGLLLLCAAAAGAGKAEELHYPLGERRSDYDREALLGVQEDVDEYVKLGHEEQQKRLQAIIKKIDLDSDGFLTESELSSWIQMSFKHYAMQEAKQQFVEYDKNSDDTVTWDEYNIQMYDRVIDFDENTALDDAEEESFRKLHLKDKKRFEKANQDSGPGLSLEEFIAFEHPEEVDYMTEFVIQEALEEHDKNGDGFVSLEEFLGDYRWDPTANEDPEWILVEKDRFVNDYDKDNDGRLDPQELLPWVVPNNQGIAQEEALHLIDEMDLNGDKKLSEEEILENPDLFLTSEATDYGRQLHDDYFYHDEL
UniProt Q00765: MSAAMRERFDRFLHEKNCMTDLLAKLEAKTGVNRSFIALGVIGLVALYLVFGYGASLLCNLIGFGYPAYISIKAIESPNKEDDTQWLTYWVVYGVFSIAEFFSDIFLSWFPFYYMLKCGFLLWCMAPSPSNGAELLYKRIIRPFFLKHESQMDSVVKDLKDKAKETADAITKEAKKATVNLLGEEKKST
UniProt P35249, whole entry, looked up: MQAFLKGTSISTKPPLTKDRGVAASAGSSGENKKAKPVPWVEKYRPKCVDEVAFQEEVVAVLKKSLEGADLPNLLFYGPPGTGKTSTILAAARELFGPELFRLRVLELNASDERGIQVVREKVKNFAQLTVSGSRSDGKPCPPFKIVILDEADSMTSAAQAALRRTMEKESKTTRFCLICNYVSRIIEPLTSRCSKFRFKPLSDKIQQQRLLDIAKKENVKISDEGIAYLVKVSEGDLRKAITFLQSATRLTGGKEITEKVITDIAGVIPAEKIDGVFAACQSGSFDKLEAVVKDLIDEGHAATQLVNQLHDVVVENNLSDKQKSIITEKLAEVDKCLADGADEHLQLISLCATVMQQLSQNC
UniProt Q96HR9: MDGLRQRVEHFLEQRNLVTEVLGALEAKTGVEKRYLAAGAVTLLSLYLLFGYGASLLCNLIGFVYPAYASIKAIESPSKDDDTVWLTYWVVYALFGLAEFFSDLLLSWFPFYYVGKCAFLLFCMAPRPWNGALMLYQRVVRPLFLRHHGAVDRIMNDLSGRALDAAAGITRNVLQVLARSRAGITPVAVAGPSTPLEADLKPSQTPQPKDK
UniProt Q96DB5: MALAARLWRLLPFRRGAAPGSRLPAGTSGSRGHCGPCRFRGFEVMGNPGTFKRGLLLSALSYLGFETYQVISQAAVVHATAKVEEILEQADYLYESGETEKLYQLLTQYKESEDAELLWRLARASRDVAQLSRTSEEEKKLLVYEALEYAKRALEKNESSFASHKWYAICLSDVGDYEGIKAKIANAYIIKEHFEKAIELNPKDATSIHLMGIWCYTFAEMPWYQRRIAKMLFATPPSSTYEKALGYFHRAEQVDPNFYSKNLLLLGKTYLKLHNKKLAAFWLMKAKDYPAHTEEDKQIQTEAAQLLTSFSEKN

log2 fold change, inactive:
RNF24 isoform 2 (UniProt Q9Y225) 0.041, RFK (UniProt Q969G6) 0.066, RNF181 (UniProt Q9P0P0) -0.022, RHOG (UniProt P84095) -0.004, RCSD1 (UniProt Q6JBY9) 0.006, RMND1 (UniProt Q9NWS8) 0.024, RNF213 isoform 4 (UniProt Q63HN8) -0.111, REPS1 (UniProt Q96D71) -0.118, REEP3 (UniProt Q6NUK4) -0.059, RFX1 (UniProt P22670) 0.069, RBMX (UniProt P38159) -0.316, RIOK1 (UniProt Q9BRS2) -0.046, RHOT2 (UniProt Q8IXI1) 0.014, RILP (UniProt Q96NA2) -0.008, RHAG (UniProt Q02094) -0.022, RCC2 (UniProt Q9P258) 0.011, RFT1 (UniProt Q96AA3) -0.039, RBPJ (UniProt Q06330) 0.022, REXO2 (UniProt Q9Y3B8) -0.004, RDX (UniProt P35241) 0.171, RHOC (UniProt P08134) 0.021, RNF113A (UniProt O15541) 0.042, RBM38 (UniProt Q9H0Z9) 0.173, RHOB (UniProt P62745) 0.088, RHBDD1 (UniProt Q8TEB9) -0.004, RNF114 (UniProt Q9Y508) 0.028, RCN2 isoform 2 (UniProt Q14257) 0.015, RNF214 (UniProt Q8ND24) -0.013, RELN (UniProt P78509) -0.04, RCC1L (UniProt Q96I51) -0.008, REEP5 (UniProt Q00765) -0.021, RMDN3 (UniProt Q96TC7) -0.031, RENBP (UniProt P51606) -0.042, RFC4 (UniProt P35249) 0.103, REEP6 (UniProt Q96HR9) 0.121, RMDN1 (UniProt Q96DB5) 0.028, RCCD1 (UniProt A6NED2) -0.089, REPIN1 isoform 4 (UniProt Q9BWE0) 0.044

Source: the supplement of paper PMC10849652
